These are yes or no findings as the source states them, for the method shown.

The target in the experiment is dN-Vasa (Vasa with the N-terminal disordered region deleted, K133-W601) (Bombyx mori) (UniProt O01378). As to the kind of experiment: single-molecule fluorescence intensity counting (TIRF microscopy); TMR-labelled Vasa adsorbed on poly-L-lysine-coated glass; number of molecules in a spot from the intensity of a single TMR; 30 mM HEPES pH 7.3, 150 mM potassium acetate, 5 mM magnesium acetate, 0.1% NP-40, 500 uM TCEP, oxygen scavengers; with 5 ug/ml yeast RNA further oligomerization; both purified.

B1: dN-Vasa (Vasa with the N-terminal disordered region deleted, K133-W601) (domain or fragment, UniProt O01378 133-601)
chain: KPVTYVPPEPTNDETEIFSSTISSGINFDKFDHIAVKVSGENPPRPIESFETANLRKYVLDNVLKAGYRKPTPIQKNAIPIIMSGRDLMGCAQTGSGKTAAFLVPIINMLLQDPKDLISENGCAQPQVIIVSPTRELTLQIFNEARKFSYGSVLKVAVAYGGTAVRHQGDNIARGCHILVATPGRLHDFVERNRVSFGSVRFVVLDEADRMLDMGFMPSIEKMMLHPTMVETTKRQTLMFSATFPEDIQHLAGRFLNNYLFVAVGIVGGASTDVEQIFIEVTKYEKRNSLKQLIEENDGKRILVFVETKRNADFIAAMLSEQQLLTSSIHGDRMQREREEALQNFKSGKHCILVATAVAARGLDIKNVDIVVNYDLPKSIDEYVHRIGRTGRVGNRGKAVSFYDSDQDLALVADLSKILRQADQSVPDFLKGGGTATFKGNKYGGSDVRNFNNANTAVVDQGQEPEEEW
modifications: TMR-labelled HaloTag ligand on the HaloTag
For the molecule B1, the binding result is “no binding”.

Source of the values: paper PMC8664846, “Heterogeneous dissociation process of truncated RNAs by oligomerized Vasa helicase” (Communications Biology, 2021).
